Measurements reported in article PMC6775667.
Results are given in words; binding and its absence hold for the method and conditions named. Binding seen in cells or lysates may run through a third protein. Some binding calls cover weakened binding; strength is not graded here.

By UniProt entry, the sequences of proteins in these tests, tags left out.
UniProt P60484: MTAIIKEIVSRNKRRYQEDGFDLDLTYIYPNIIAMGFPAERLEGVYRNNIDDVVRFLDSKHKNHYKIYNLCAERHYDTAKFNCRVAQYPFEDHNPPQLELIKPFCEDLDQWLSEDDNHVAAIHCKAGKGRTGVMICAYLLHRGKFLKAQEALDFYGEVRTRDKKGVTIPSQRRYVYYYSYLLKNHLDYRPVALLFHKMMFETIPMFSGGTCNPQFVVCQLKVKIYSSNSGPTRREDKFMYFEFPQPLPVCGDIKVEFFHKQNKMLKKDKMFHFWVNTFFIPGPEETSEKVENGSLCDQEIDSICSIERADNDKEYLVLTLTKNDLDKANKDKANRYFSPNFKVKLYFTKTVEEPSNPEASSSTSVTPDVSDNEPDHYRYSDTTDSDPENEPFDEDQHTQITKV
UniProt P51784: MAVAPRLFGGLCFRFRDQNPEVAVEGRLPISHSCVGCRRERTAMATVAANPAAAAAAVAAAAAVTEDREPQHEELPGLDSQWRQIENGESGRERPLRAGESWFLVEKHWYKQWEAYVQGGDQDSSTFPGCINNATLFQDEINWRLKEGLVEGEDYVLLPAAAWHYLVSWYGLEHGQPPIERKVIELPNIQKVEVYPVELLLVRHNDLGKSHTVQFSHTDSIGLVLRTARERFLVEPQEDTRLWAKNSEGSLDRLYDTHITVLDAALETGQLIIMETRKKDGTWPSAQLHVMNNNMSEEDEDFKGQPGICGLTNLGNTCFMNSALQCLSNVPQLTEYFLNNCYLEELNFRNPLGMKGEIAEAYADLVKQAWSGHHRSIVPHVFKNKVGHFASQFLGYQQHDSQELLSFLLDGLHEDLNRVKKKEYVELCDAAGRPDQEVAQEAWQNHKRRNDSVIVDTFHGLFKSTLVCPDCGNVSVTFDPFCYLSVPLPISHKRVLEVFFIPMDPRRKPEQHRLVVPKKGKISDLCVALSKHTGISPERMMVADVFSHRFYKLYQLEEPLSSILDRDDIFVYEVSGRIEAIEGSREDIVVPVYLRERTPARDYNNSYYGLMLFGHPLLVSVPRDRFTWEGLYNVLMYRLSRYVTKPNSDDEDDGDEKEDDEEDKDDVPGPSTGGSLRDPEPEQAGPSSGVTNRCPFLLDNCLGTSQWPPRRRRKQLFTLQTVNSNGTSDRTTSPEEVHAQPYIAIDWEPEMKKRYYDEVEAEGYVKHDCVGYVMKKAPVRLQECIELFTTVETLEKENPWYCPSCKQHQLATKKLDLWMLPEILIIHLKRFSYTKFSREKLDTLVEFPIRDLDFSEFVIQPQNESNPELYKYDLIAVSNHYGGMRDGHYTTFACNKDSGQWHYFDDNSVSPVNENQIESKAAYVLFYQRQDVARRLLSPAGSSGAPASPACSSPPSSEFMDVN

Target: PTEN (human (endogenous in ACHN, 786-O, Caki-1)) (UniProt P60484)
Test: co-IP; cell lysates incubated with 3 ug PTEN antibody (Abcam) and Dynabeads Protein G at 4 °C overnight, western blot of the precipitate; ACHN and 786-O cells with lnc-DILC overexpression, Caki-1 cells with lnc-DILC knock-down

binding: binds
Substance: deubiquitinase USP11 (from UniProt P51784 1-963) (enzyme)
